# PubChem BioAssay AID743121, NCATS – 2013
# Test: 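Knock-downs that sensitise breast cancer cells to camptothecin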 (primary screen)
# System: MDA-MB-231 cells, a human breast cancer line
# Reagent: single siRNA against human genes, 20 nM siRNA (0.8 pmol per well)
# Time to read-out: 120 h (drug added 48 h after transfection, read 72 h later)
# Challenge: camptothecin 20 nM (about EC30) for 72 h; vehicle 0.1% DMSO in parallel plates
# Detection: 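CellTiter-Glo ATP signal, scaled to control siRNA as percent viability; sensitisation given as log2 of untreated divided by camptothecin-treated viability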
# Direction: log2 vehicle/camptothecin viability: higher = stronger sensitisation to camptothecin
# Rule for the call: 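Each gene scored by redundant siRNA activity (RSA) over its individual siRNA ratios; a gene is called active at p < 0.001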
# The deposit covers about 26,000 reagents; this is a random part of them. 167 of all reagents (0.63%) count as active. 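Calls are per gene from RSA p-values that are not deposited; an individual active-marked siRNA can sensitise only weakly.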 Entries without a mark were called inactive. Reagents against one gene are numbered here. Not all columns of the deposit are shown.
gene,reagent,log2 vehicle/camptothecin viability
PRKD1 (protein kinase D1),1,-0.287
PRKD1 (protein kinase D1),2,-0.221
PRKD1 (protein kinase D1),3,0.0555
PRKD1 (protein kinase D1),4,0.0726
GMPR (guanosine monophosphate reductase),1,-0.0429
GMPR (guanosine monophosphate reductase),2,-0.368
GMPR (guanosine monophosphate reductase),3,-0.161
GMPR (guanosine monophosphate reductase),4,0.0667
TALDO1 (transaldolase 1),1,-0.301
TALDO1 (transaldolase 1),2,-0.0118
TALDO1 (transaldolase 1),3,-0.172
TALDO1 (transaldolase 1),4,0.0296
DCSTAMP (dendrocyte expressed seven transmembrane protein),1,-0.237
DCSTAMP (dendrocyte expressed seven transmembrane protein),2,-0.00527
DCSTAMP (dendrocyte expressed seven transmembrane protein),3,-0.135
DCSTAMP (dendrocyte expressed seven transmembrane protein),4,-0.14
GALK2 (galactokinase 2),1,-0.451
GALK2 (galactokinase 2),2,0.795
GALK2 (galactokinase 2),3,-0.317
GALK2 (galactokinase 2),4,-0.0488
SLC22A7,1,-0.339
SLC22A7,2,0.832
SLC22A7,3,-0.138
SLC22A7,4,0.0674

Laid out differently: entries from further up
gene	reagent	log2 vehicle/camptothecin viability
DCSTAMP (dendrocyte expressed seven transmembrane protein)	2	-0.00527
DCSTAMP (dendrocyte expressed seven transmembrane protein)	3	-0.135

The list goes on.
gene,reagent,log2 vehicle/camptothecin viability
CCL7 (C-C motif chemokine ligand 7),1,-0.123
CCL7 (C-C motif chemokine ligand 7),2,0.0221
CCL7 (C-C motif chemokine ligand 7),3,0.641
CCL7 (C-C motif chemokine ligand 7),4,-0.136
CPA5 (carboxypeptidase A5),1,-0.0128
CPA5 (carboxypeptidase A5),2,0.0751
CPA5 (carboxypeptidase A5),3,0.0121
GHRHR (growth hormone releasing hormone receptor),1,-0.217
GHRHR (growth hormone releasing hormone receptor),2,-0.286
GHRHR (growth hormone releasing hormone receptor),3,-0.233
GHRHR (growth hormone releasing hormone receptor),4,0.579
HTR2B (5-hydroxytryptamine receptor 2B),1,-0.102
HTR2B (5-hydroxytryptamine receptor 2B),2,0.744
HTR2B (5-hydroxytryptamine receptor 2B),3,0.409
KLF13 (KLF transcription factor 13),1,-0.0718
KLF13 (KLF transcription factor 13),2,-0.139
KLF13 (KLF transcription factor 13),3,0.277
KLF13 (KLF transcription factor 13),4,-0.0508
SMC1A (structural maintenance of chromosomes 1A),1,0.423
SMC1A (structural maintenance of chromosomes 1A),2,0.642
SMC1A (structural maintenance of chromosomes 1A),3,0.000688
SMC1A (structural maintenance of chromosomes 1A),4,-0.268
